The campaign covered roughly 320,000 compounds. About 22,000 (6.9%) were called active. The shares of active, inactive and inconclusive entries below differ from those in the screen. The call rests on the fitted dose curve; in most records, active means well fitted inhibition curve with a large enough effect; inconclusive means small, poorly fitted or top-dose-only effect, or another doubt; inactive means no such curve, though single readings can be large or run the other way. Where the call is inconclusive, the potency comes from a doubtful curve fit.
experiment: Primary qHTS for delayed death inhibitors of the malarial parasite plastid, 96 hour incubation; details: P. falciparum luciferase reporter growth; series mostly up to 28.7 µM
Outline: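 Parasite growth measured via integrated firefly luciferase reporter in P. falciparum. Infected erythrocytes at 2% hematocrit, 0.05% parasitemia final were treated 96 hours at 37 C under 5% CO2, and luminescence was read.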
Potency means the concentration at half of the fitted maximal effect.

| Structure (SMILES) | Potency |
| --- | --- |
| O=C(CN1C(=O)S/C(=C\c2ccc(Cl)cc2)C1=O)NC1C=CS(=O)(=O)C1 (configuration not stated) | inconclusive: 10.4 µM [inhibitor, partial curve] |
| Cc1ccc(S(=O)(=O)N(C)C)cc1-n1c(SCC(=O)N(C)C)nc2ccccc2c1=O | inconclusive: 16.5 µM [inhibitor, single point] |
| COc1ccc(-c2noc(Cn3cc(S(=O)(=O)N4CCCC4)ccc3=O)n2)cc1 | inactive |
| COCc1[nH]nc2c1C(c1ccc(F)cc1F)C(C#N)=C(N)O2 (configuration not stated) | inconclusive: 10.4 µM [inhibitor, single point] |
| c1ccc2[nH]c(-c3cscn3)nc2c1 | inactive |
| COc1ccc(S(=O)(=O)N2CCCC(C(=O)N3CCOCC3)C2)cc1OC (configuration not stated) | inactive |
| CC(C)CN1CCNC(=O)C1CC(=O)N(C)CC1CCOCC1 (configuration not stated) | inconclusive: 18.5 µM [inhibitor, single point] |
| CCOc1cc(CNS(=O)(=O)c2ccc3c(c2)CC(=O)N3C)cc(OCC)c1OCC | inactive |
| CN(C)c1ccc(C(C(=O)NCC2CCCO2)N(Cc2ccco2)C(=O)c2snc(C(N)=O)c2N)cc1 (configuration not stated) | inconclusive: 4.65 µM [inhibitor, partial curve, poor fit] |
| Cc1ccc(CCNC(=O)c2coc3nc4ccccc4nc23)cc1 | active: 2.62 µM |
| CCCN1CNc2c(c(=O)[nH]c(=S)n2CCc2ccccc2)C1 | inconclusive: 16.5 µM [inhibitor, single point] |
| O=C(NCCc1ccc(F)cc1)c1ccc2c(=O)n3c(nc2c1)CCC3 | inactive |
| O=S(=O)(c1ccc(Br)s1)N1CCN(c2ccnc3cc(Cl)ccc23)CC1 | inconclusive: 14.7 µM [inhibitor, partial curve, poor fit] |
| O=C(O)CCC(=O)N1N=C(c2ccc(Br)cc2)CC1c1cccs1 (configuration not stated) | inconclusive: 8.28 µM [inhibitor, partial curve, poor fit] |
| O=C(c1cc(C(=O)NCc2ccccc2)c(=O)n(Cc2ccccc2)c1)c1cc(Cl)ccc1O | active: 0.657 µM |
| Cc1csc(NC(=O)C(F)(F)F)n1 | inactive |
| CCOC(=O)C(=O)Nc1ccc(S(=O)(=O)Nc2ncccn2)cc1 | inconclusive: 9.28 µM [inhibitor, single point] |
| CC(C)C1C(C#N)=C(N)Oc2n[nH]c(-c3ccccc3)c21 (configuration not stated) | inactive |
| CCOC(=O)c1ccc(NC(=S)NN2CCN(C)CC2)cc1 | inactive |
| CCOC(=O)C1=C(O)/C(=C/c2ccc(OCC(=O)O)c(OCC)c2)SC1=Nc1ccc(C)cc1 | inconclusive: 10.4 µM [inhibitor, single point] |
| Cc1nnc(SCC(=O)NC(C)(C)C)n1NCc1c(F)cccc1Cl | active: 2.33 µM |
| COC(=O)[C@@]12CCCN1[C@H](c1ccc(-c3ccc(OC)cc3)cc1)[C@@H]1C(=O)N(C)C(=O)[C@@H]12 | active: 9.28 µM |
| CC(C)n1nc(C(=O)OCn2nnc3ccccc3c2=O)c2ccccc2c1=O | inconclusive: 18.5 µM [inhibitor, single point] |
| CC1CCN(S(=O)(=O)c2ccc3c(c2)N(CC(=O)NCCN2C(C)CCCC2C)C(=O)CS3)CC1 (configuration not stated) | inactive |

Single entries from the results shown:
For Potency, CC(C)C1C(C#N)=C(N)Oc2n[nH]c(-c3ccccc3)c21 (configuration not stated) shows inactive
For Potency, Cc1ccc(S(=O)(=O)N(C)C)cc1-n1c(SCC(=O)N(C)C)nc2ccccc2c1=O shows inconclusive: 16.5 µM [inhibitor, single point]
For Potency, CC(C)CN1CCNC(=O)C1CC(=O)N(C)CC1CCOCC1 (configuration not stated) shows inconclusive: 18.5 µM [inhibitor, single point]
For Potency, CCOc1cc(CNS(=O)(=O)c2ccc3c(c2)CC(=O)N3C)cc(OCC)c1OCC shows inactive

Further structures follow.

| Structure (SMILES) | Potency |
| --- | --- |
| c1ccc(N2CCN(c3ccc4nncn4n3)CC2)nc1 | inconclusive: 18.5 µM [inhibitor, single point] |
| N#Cc1cccc(C(c2nnnn2C2CCCC2)N2CCCCCC2)c1 (configuration not stated) | active: 11.7 µM |
| COc1cc(NC(=S)NN2CCN(C)CC2)cc(OC)c1OC | inactive |
| CN(C)c1cc(-c2ccc(Cl)cc2Cl)oc(=O)c1Cl | inconclusive: 18.5 µM [inhibitor, single point] |
| CCOC(=O)N(Cc1ccccc1)C(C(=O)O)C(C(=O)O)N(Cc1ccccc1)C(=O)OCC (configuration not stated) | inconclusive: 18.5 µM [inhibitor, single point] |
| O=C(NC12CC3CC(CC(C3)C1)C2)c1cc([N+](=O)[O-])ccc1Cl | inconclusive: 18.5 µM [inhibitor, single point] |
| COc1ccc2oc(=O)c(C(=O)NCC3CCCO3)cc2c1 (configuration not stated) | inactive |
| CCOC(=O)c1c(C)n(C)c2ccc(OC)c(NC(=O)CCN3CCSCC3)c12 | inactive |
| COc1ccccc1-n1cc(CN2CCN(CC=C(C)C)C(CCO)C2)cn1 (configuration not stated) | inactive |
| COc1cc(/C=C2\C(=N)N3N=C(C)SC3=NC2=O)cc(OC)c1OCCOc1ccccc1C | inconclusive: 7.38 µM [inhibitor, partial curve] |
| O=C(CSC1=NCCN1)Nc1cccc(C(F)(F)F)c1 | inconclusive: 16.5 µM [inhibitor, single point] |
| COc1ccc(/C=N/N=C(/N)N[N+](=O)[O-])c(OC)c1 | inactive |
| Cc1ccc(NC(=O)c2cc(-c3ccc(C)o3)nc3ccccc23)nc1 | inconclusive: 18.5 µM [inhibitor, single point] |
| CCOC(=O)Cc1c(C)nc2c(-c3ccccc3OC)c(C)nn2c1C | inconclusive: 11.7 µM [inhibitor, partial curve] |
| Cc1c(C(=O)C(=O)N2CCN(C)CC2)c2ccccc2n1C | inconclusive: 0.0828 µM [inhibitor, full curve, poor fit] |
| OC(CN1c2ccccc2Sc2ccccc21)Cn1nnc2ccccc21 (configuration not stated) | inconclusive: 9.28 µM [inhibitor, single point] |
| CCC(=NCc1ccco1)c1c(O)n(C)c(=O)n(C)c1=O | inactive |
| COc1ccc(NC(=O)NNC(=O)c2ccc3ccccc3c2O)c(OC)c1 | inactive |
| COCc1[nH]nc2c1C(c1ccsc1)C(C#N)=C(N)O2 (configuration not stated) | inconclusive: 18.5 µM [inhibitor, single point] |
| COc1cccc(N(CC(=O)NCCSc2ccccn2)S(C)(=O)=O)c1 | inconclusive: 0.522 µM [inhibitor, full curve, poor fit] |
| O=C(c1ccncc1)c1nccn1-c1ccccn1 | active: 13.1 µM |
| CCOC(=O)c1c(C)n(-c2ccccc2)c2ccc(O)cc12 | active: 5.86 µM |
| O=C(COC(=O)CNS(=O)(=O)c1ccccc1)Nc1ccc(Cl)cn1 | inconclusive: 18.5 µM [inhibitor, single point] |

From PubChem BioAssay AID504834 (National Center for Advancing Translational Sciences (NCATS), 2011)
